The text below walks through data of patent US20020086017A1, “GA binding protein and neurite derived growth factors for use in the treatment of muscular dystrophy” (published 2002).

Amino acid sequences for entries named in this document (tags omitted).
UniProt Q06547: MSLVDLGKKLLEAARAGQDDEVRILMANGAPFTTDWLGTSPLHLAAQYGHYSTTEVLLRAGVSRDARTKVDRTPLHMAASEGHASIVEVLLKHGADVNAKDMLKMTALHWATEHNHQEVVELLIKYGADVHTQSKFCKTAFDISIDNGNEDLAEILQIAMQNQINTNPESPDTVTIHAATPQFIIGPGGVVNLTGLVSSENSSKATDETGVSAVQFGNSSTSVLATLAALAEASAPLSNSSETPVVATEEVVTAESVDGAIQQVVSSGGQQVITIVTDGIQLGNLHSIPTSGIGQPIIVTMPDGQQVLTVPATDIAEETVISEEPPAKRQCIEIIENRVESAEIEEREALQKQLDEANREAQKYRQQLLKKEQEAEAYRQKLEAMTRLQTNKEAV

The target of this assay is T1, GABP-α GST fusion protein (human) (UniProt Q06546).
T1 sequence (looked up): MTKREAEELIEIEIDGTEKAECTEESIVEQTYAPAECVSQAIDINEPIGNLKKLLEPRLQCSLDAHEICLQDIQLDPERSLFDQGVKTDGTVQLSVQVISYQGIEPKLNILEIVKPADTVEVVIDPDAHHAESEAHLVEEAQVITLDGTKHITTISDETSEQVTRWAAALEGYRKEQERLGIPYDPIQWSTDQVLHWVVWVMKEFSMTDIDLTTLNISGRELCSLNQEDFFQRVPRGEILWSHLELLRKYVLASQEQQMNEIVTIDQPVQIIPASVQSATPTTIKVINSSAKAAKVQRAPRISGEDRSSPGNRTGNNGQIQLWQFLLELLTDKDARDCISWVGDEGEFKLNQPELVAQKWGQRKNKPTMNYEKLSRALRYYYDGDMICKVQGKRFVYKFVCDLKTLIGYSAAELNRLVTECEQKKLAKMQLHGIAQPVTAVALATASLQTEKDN
Kind of assay: EMSA with radiolabelled UtroNBox DNA probe and purified GST fusion proteins. Background: A gel shift assay detects complexes by their altered migration in electrophoresis.

These are yes or no findings as the source states them, for the method shown. Some binding calls cover weakened binding; strength is not graded here. Tags and fused reporters may be left off the sequences shown.

“GABP-β GST fusion protein (from UniProt Q06547 1-395)”: the binding entry is given as “binds”.
